Results reported in PMC7819943, “Rice protein-binding microarrays: a tool to detect cis-acting elements near promoter regions in rice”.
This is one part of the list.

Amino acid sequences for entries named in this document (tags omitted).
UniProt Q0JBA9, entry or part of it: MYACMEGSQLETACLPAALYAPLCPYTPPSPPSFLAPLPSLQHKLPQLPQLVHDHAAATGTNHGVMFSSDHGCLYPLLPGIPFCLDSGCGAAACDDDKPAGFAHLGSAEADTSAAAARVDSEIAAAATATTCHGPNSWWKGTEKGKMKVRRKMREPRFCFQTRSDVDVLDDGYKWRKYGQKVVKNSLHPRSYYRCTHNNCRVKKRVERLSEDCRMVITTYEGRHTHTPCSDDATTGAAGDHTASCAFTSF

target: OsWRKY34 (Oryza sativa, UniProt Q0JBA9 1-250); test: protein-binding microarray (RPBM); PBS, 2% BSA, 51.3 ng/ul salmon testes DNA, 50 uM zinc acetate, 200 nM TF, 25 C, 1 h; high values mean tight binding; settings: protein: recombinant; tags: N-terminal polyhistidine and DsRed monomer fusion (pET32a); label: CyDye5-dUTP incorporated in the synthesized complementary strand; 3' TTTTT single-stranded linker to array surface; dsDNA, one strand shown
In short: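 For the binding signal, per-feature fluorescence intensity was read in arbitrary units on an Axon 4000B scanner. Before scanning, a 2% BSA-blocked custom Agilent array made double-stranded with Cy5-dUTP was washed after 1 h at 25 °C with 200 nM protein and 50 µM zinc acetate. The proteins were Ni–NTA-purified transcription factors with N-terminal polyhistidine and DsRed fusions, expressed in E. coli BL21-CodonPlus.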

| Sequence | binding signal |
| --- | --- |
| AGAACCAAATACGCACGTAGTATATCATTTGTATTTCATTCGGAGTCACCTAGTGCAG | 8380 fluorescence intensity (a.u.) |
| CCTGCTGATATCAACATGTTTCACACTCTGTGCCAATTTTCGGAGTCACCTAGTGCAG | 9240 fluorescence intensity (a.u.) |
| GCATAAAAGCATGCTCTCTCTTTTTCTCGTCTCTCTTCTCCGGAGTCACCTAGTGCAG | 12100 fluorescence intensity (a.u.) |
| AATTTACGTTTTTTCGGTGTCCCATAGCTAATTACATATCCGGAGTCACCTAGTGCAG | 8550 fluorescence intensity (a.u.) |
| ACAGCGGTTTTGGTTGACGTAGTGCCTATGTGGCGTTGACCGGAGTCACCTAGTGCAG | 11700 fluorescence intensity (a.u.) |
| TCATTAACTTTAACATATATTTATCCATCCTGTTGTATTCCGGAGTCACCTAGTGCAG | 8380 fluorescence intensity (a.u.) |
| TATGTGTGTGTTTTTTTTGTTGATTCTTAATTTCAAGAACCGGAGTCACCTAGTGCAG | 12700 fluorescence intensity (a.u.) |
| GTTCGGTCCTGTTCACTTTGATGTCATTTTTAACCTTATCCGGAGTCACCTAGTGCAG | 10200 fluorescence intensity (a.u.) |
| TAGTTACAACTTTTTCTTTAAACTTCCAACTTTTCCATCACGGAGTCACCTAGTGCAG | 8580 fluorescence intensity (a.u.) |
| CCTGCGCGTTGGCCTGCTTGATGTGTCGGCCCAAAATGGTCGGAGTCACCTAGTGCAG | 8300 fluorescence intensity (a.u.) |
| CTTGCCTTTTTTATTCCTTAATTCTTAAGCAGCACTTTCACGGAGTCACCTAGTGCAG | 9270 fluorescence intensity (a.u.) |
| ATCACAATAGTAACTATACTCTACAATCCATGGTTTCTTACGGAGTCACCTAGTGCAG | 8960 fluorescence intensity (a.u.) |
| CACGTACTCATCCATCTACACATCTTCTTCTCATCATCTCCGGAGTCACCTAGTGCAG | 10000 fluorescence intensity (a.u.) |
| ATCCAACGCGAGTGTTGCAATGCACTTGGTTTGTTGTTTGCGGAGTCACCTAGTGCAG | 10600 fluorescence intensity (a.u.) |
| ATTTTCCTATTCGTACGTTTTCTCAATCCTGCGATTAAAGCGGAGTCACCTAGTGCAG | 11600 fluorescence intensity (a.u.) |
| AGCTTTCACTTTGACCTTAGAATATGTTACACGTTTGTTTCGGAGTCACCTAGTGCAG | 9850 fluorescence intensity (a.u.) |
| CATGTGCTCAAAGCTTATCTGCATACAAGCCTTCGAGACCCGGAGTCACCTAGTGCAG | 64100 fluorescence intensity (a.u.) |
| TTTAGGGTTTGTGATTTTGCCCCTGCTTTTTTGAAATGAACGGAGTCACCTAGTGCAG | 10900 fluorescence intensity (a.u.) |
| ATCTATGCTTGTTCGTCAGTTGTGTTTGTGTCAAATGAGCCGGAGTCACCTAGTGCAG | 10300 fluorescence intensity (a.u.) |
| TCTCTCTCTCTCTCTCTCTATATATATATATATATATATACGGAGTCACCTAGTGCAG | 9260 fluorescence intensity (a.u.) |
| TCTCTCTCTTCTCGCCCCACCCTACTCCTTCTAGTACCTCCGGAGTCACCTAGTGCAG | 8300 fluorescence intensity (a.u.) |

| Sequence | binding signal |
| --- | --- |
| GCTCGCTGCCCATATATACGCGCGCCTCGCGTCTCCACTTCGGAGTCACCTAGTGCAG | 10900 fluorescence intensity (a.u.) |
| GGGTGTTTTGTTGACTATGAGTACTTTGACTGAAGAGGGTCGGAGTCACCTAGTGCAG | 10100 fluorescence intensity (a.u.) |
| ATCCACAGTTTTTTTGACTTGCACCCTTCCTATTATTCCACGGAGTCACCTAGTGCAG | 10700 fluorescence intensity (a.u.) |
| GCCGGCGCCTCGTCCGTCATTCCGCCTGTGTCAAGCCGAACGGAGTCACCTAGTGCAG | 11500 fluorescence intensity (a.u.) |
| TGCATCGTCTTAGGATTCTCCGTCTTGCCCACAATACTATCGGAGTCACCTAGTGCAG | 8220 fluorescence intensity (a.u.) |
| AGACCACCATGCTTCACACTCCACTCCACACTGGCACACTCGGAGTCACCTAGTGCAG | 12900 fluorescence intensity (a.u.) |
| GACTCCTTCCAATCCTCTTCATCCTCCGCCGCCGCGCTTGCGGAGTCACCTAGTGCAG | 11600 fluorescence intensity (a.u.) |
| TCCTTCGGCAACGACCTCAACACAGACGTGGGCGACGACGCGGAGTCACCTAGTGCAG | 8060 fluorescence intensity (a.u.) |
| CTTCCAATTTTAACGTCTACCAAATCTAAATTGTCTGTTCCGGAGTCACCTAGTGCAG | 8370 fluorescence intensity (a.u.) |
| ATGAGTGATTGATTTCTTGTTTATAGGAGTGGGTTGTTCACGGAGTCACCTAGTGCAG | 11200 fluorescence intensity (a.u.) |
| ACATGCACAAGGTAGCCTCCGCTTTAATTCCTTCCCTTTTCGGAGTCACCTAGTGCAG | 8860 fluorescence intensity (a.u.) |
| ACGGTACGCATCGAAGCTCTCTTTCTCTCTGCCCTCTCTACGGAGTCACCTAGTGCAG | 8050 fluorescence intensity (a.u.) |
| CACTTATTCTTCAGGTTTGGATTCCATCCTGTTCTGTCATCGGAGTCACCTAGTGCAG | 9730 fluorescence intensity (a.u.) |
| CCCGAAGTCTATTATGCATGGTGAACTGGTGGTGTTCCGACGGAGTCACCTAGTGCAG | 9200 fluorescence intensity (a.u.) |
| TAGTAGGTGTGGACTAAGTGTAGTATGTTTGACCGGTTGTCGGAGTCACCTAGTGCAG | 15200 fluorescence intensity (a.u.) |
| CTGGGTGTGGGTCAACTTTGCGACATCATTACGTCCCCAACGGAGTCACCTAGTGCAG | 8270 fluorescence intensity (a.u.) |
| ACGGCTCGCATCTTCACTTGCCAATGTGAGAATCTTGTGTCGGAGTCACCTAGTGCAG | 8070 fluorescence intensity (a.u.) |
| CTCCCACCTACCCACGTCTGACAACCTGGCCCCACACCCACGGAGTCACCTAGTGCAG | 8120 fluorescence intensity (a.u.) |
| TTTGGCTGCCGACACGTCCCCTTGGTTGCAACAAACCTCTCGGAGTCACCTAGTGCAG | 8680 fluorescence intensity (a.u.) |
| CACCACGCCGCTCGCCGCCCTCGCGGCTTCCTGCCATCCGCGGAGTCACCTAGTGCAG | 10600 fluorescence intensity (a.u.) |
| GTGCCACGCAGTATCACTCTTGTCCTGTCGCCTTCGATTTCGGAGTCACCTAGTGCAG | 9040 fluorescence intensity (a.u.) |

Random excerpt: 2 entries already listed.

| Sequence | binding signal |
| --- | --- |
| TCTCTCTCTTCTCGCCCCACCCTACTCCTTCTAGTACCTCCGGAGTCACCTAGTGCAG | 8300 fluorescence intensity (a.u.) |
| CTGGGTGTGGGTCAACTTTGCGACATCATTACGTCCCCAACGGAGTCACCTAGTGCAG | 8270 fluorescence intensity (a.u.) |
